Results as given in PMC11369598.
No constants are given. Whether binding was seen depends on the method and setting. Binding seen in cells or lysates may run through a third protein. Some entries that bind do so weakly or less than the wild type. Tags and fused reporters may be left off the sequences shown.

Target: T1, KLHL6 wild type, C-terminal Strep-HA tag (KLHL6-strHA) (human) (UniProt Q8WZ60)
T1 sequence: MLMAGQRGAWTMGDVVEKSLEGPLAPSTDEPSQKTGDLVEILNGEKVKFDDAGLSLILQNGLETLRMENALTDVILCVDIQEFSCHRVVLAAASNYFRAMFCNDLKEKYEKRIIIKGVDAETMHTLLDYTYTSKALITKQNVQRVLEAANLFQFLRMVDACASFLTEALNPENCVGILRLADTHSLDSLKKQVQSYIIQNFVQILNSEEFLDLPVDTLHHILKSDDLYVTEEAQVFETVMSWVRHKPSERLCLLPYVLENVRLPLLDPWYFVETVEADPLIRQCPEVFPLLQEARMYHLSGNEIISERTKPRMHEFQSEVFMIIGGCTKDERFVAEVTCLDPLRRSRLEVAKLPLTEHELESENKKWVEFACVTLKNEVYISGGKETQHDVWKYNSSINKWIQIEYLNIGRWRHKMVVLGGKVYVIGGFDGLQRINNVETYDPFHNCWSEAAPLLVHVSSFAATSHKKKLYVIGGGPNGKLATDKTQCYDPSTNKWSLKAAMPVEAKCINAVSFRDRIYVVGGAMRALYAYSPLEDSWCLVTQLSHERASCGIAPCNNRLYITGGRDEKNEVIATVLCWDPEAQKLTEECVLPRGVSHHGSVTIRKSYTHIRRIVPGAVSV
Experiment: pull-down; SuDHL4 cells transduced with Strep-tagged WT and mutant KLHL6 or EmGFP; eluate purified for Strep-tag; Western blot with HA antibody (bait) and KLHL6 antibody (bait and prey)

binding: binds
B1: endogenous KLHL6 (protein, UniProt Q8WZ60 1-621)
chain: MLMAGQRGAWTMGDVVEKSLEGPLAPSTDEPSQKTGDLVEILNGEKVKFDDAGLSLILQNGLETLRMENALTDVILCVDIQEFSCHRVVLAAASNYFRAMFCNDLKEKYEKRIIIKGVDAETMHTLLDYTYTSKALITKQNVQRVLEAANLFQFLRMVDACASFLTEALNPENCVGILRLADTHSLDSLKKQVQSYIIQNFVQILNSEEFLDLPVDTLHHILKSDDLYVTEEAQVFETVMSWVRHKPSERLCLLPYVLENVRLPLLDPWYFVETVEADPLIRQCPEVFPLLQEARMYHLSGNEIISERTKPRMHEFQSEVFMIIGGCTKDERFVAEVTCLDPLRRSRLEVAKLPLTEHELESENKKWVEFACVTLKNEVYISGGKETQHDVWKYNSSINKWIQIEYLNIGRWRHKMVVLGGKVYVIGGFDGLQRINNVETYDPFHNCWSEAAPLLVHVSSFAATSHKKKLYVIGGGPNGKLATDKTQCYDPSTNKWSLKAAMPVEAKCINAVSFRDRIYVVGGAMRALYAYSPLEDSWCLVTQLSHERASCGIAPCNNRLYITGGRDEKNEVIATVLCWDPEAQKLTEECVLPRGVSHHGSVTIRKSYTHIRRIVPGAVSV
